Laboratory results as given in article doi:10.1101/2024.07.08.601072.
No constants are given. Whether binding was seen depends on the method and setting. Some binding calls cover weakened binding; strength is not graded here. For some assays here: Sequences can lack the tags named with a protein.

Tests used:
[1] = molecular target: Tom1p HECT domain (2850-3268) (S. cerevisiae) (UniProt Q03280); experiment: SEC
[2] = molecular target: Tom1p (endogenous) (S. cerevisiae (endogenous in yeast)) (UniProt Q03280); experiment: far-Western, overlay or dot blot

binding [1] | binding [2] | Binder
no binding |  | Tom1p HECT domain (2850-3268) (domain or fragment, UniProt Q03280 2850-3268) NLFFPFTDAHKKLLNQMIRSNPKLMSGPFALLVKNPKVLDFDNKRYFFNAKLKSDNQERPKLPITVRREQVFLDSYRALFFKTNDEIKNSKLEITFKGESGVDAGGVTREWYQVLSRQMFNPDYALFLPVPSDKTTFHPNRTSGINPEHLSFFKFIGMIIGKAIRDQCFLDCHFSREVYKNILGRPVSLKDMESLDPDYYKSLVWILENDITDIIEETFSVETDDYGEHKVINLIEGGKDIIVTEANKQDYVKKVVEYKLQTSVKEQMDNFLVGFYALISKDLITIFDEQELELLISGLPDIDVDDWKNNTTYVNYTATCKEVSYFWRAVRSFDAEERAKLLQFVTGTSKVPLNGFKELSGVNGVCKFSIHRDFGSSERLPSSHTCFNQLNLPPYESYETLRGSLLLAINEGHEGFGLA
 | binds | GST-Spt6p^tSH2 (WT) (domain or fragment, UniProt P23615 1223-1451) SIWDLKQELEDAEEERKLMMAEARAKRTHRVINHPYYFPFNGRQAEDYLRSKERGEFVIRQSSRGDDHLVITWKLDKDLFQHIDIQELEKENPLALGKVLIVDNQKYNDLDQIIVEYLQNKVRLLNEMTSSEKFKSGTKKDVVKFIEDYSRVNPNKSVYYFSLNHDNPGWFYLMFKINANSKLYTWNVKLTNTGYFLVNYNYPSVIQLCNGFKTLLKSNSSKNRMNNYR
